The source of these data is US20150284465A1.

Chains of the proteins cited; added tags and fusions are not shown. Lines headed by an entry give the natural chain unless they say otherwise; changes in a name come on top.
UniProt P08887: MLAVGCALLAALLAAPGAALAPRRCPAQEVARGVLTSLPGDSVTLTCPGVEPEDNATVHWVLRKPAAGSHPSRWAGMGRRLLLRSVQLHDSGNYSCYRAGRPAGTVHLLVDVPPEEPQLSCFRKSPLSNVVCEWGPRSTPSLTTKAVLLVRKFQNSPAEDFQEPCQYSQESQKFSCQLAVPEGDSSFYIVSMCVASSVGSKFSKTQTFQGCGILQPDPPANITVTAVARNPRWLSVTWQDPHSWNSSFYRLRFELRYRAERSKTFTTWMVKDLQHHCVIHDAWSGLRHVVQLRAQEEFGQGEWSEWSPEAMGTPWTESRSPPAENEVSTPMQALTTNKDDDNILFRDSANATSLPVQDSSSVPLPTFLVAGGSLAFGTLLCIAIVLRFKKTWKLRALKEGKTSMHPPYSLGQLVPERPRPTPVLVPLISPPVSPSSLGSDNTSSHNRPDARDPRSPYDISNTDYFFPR

The target in experiment [1] is SR344 (N-terminal 1st to 344th amino acids of soluble human IL-6R) (human) (UniProt P08887). In words: SPR (Biacore T100), antibody captured on Protein A, soluble human IL-6 receptor as analyte.
Experiment [2] has the same target. Kind of experiment: SPR (Biacore T100), Protein A/G capture, SR344 as analyte, 37 C.
The target is the same in experiment [3]. In words: SPR (Biacore T100), antibody captured on Protein A/G, SR344 as analyte (0.0654, 0.131, 0.261 µg/ml per the text), 37 C.
The target is the same in experiment [4]. Kind of experiment: SPR (Biacore T100), antibody captured on Protein A/G, SR344 as analyte (0.065, 0.131, 0.261 µg/ml per the text), 37 C.

Substitutions are numbered along the chain they refer to. Names may count otherwise. No constants are given. Whether binding was seen depends on the method and setting. Binding calls can cover weak binding; strength is not graded here.

B1: 6R_a_H2L2 (antibody, human IgG1, kappa, V domains shown)
VH: QVQLQESGPGLVKPSETLSLTCAVSGYSISDDHAWSWVRQPPGEGLEWIGYISYSGITNYNPSLKGRVTISRDTSKNQFSLKLSSVTAADTAAYYCARVLARITAMDYWGEGTLVTVSS
VL: DIQMTQSPSSLSASVGDSVTITCQASQDISSYLNWYQQKPGKAPELLIYYGSELHSGVPSRFSGSGSGTDFTFTISSLEAEDAATYYCGQGNRLPYTFGQGTKVEIER
In the case of B1, the binding result in experiment [1] was “binds”.

B2: 6R_a_H3L3 (antibody, human IgG1, kappa, V domains shown)
VH: QVQLQESGPGLVKPSETLSLTCAVSGYSISDDHAWSWVRQPPGEGLEWIGYISYSGITNYNPSLQDRVTISRDNSKNTLYLQMNSLRAEDTAVYYCARLLARATAMDYWGQGILVTVSS
VL: B1 VL with Q27E, H55E
Take B2: the binding result in experiment [1] is reported as “binds”.

B3: F2H/L39-IgG1 (antibody, V domains shown)
VH: B2 VH
VL: B1 VL with Q27E, H55E
In the case of B3, in experiment [2], the binding result was “binds”.

B4: RDC-23 (antibody, V domains shown)
VH: QVQLQESGPGLVRPSQTLSLTCTVSGYSITSDHAWSWVRQPPGRGLEWIGYISYSGITTYNPSLKSRVTMLRDTSKNQFSLRLSSVTAADTAVYYCARVLARITAMDYWGQGSLVTVSS
VL: DIQMTQSPSSLSASVGDRVTITCRASQDISSYLNWYQQKPGKAPKLLIYYTSRLHSGVPSRFSGSGSGTDFTFTISSLQPEDIATYYCGQGNRLPYTFGQGTKVEIK
Take B4: the binding result in experiment [3] is given as “binds”.

B5: PF1 antibody (antibody, IgG1, V domains shown)
VH: B1 VH
VL: B4 VL with R18S, R24Q, K45E, T51G, R53E, Q79E, P80A, I83A, K107E
Turning to B5, the binding result in experiment [4] is given as “binds”.

B6: H96/PF1L-IgG1 (antibody, V domains shown)
VH: B2 VH with Q65K, D66G, L99V, A103I, Q111E, I113T
VL: B4 VL with R18S, R24Q, K45E, T51G, R53E, Q79E, P80A, I83A, K107E
With B6, the binding result in experiment [2] is “binds”.

B7: 6R_a_H1L1 (antibody, human IgG1, kappa, V domains shown)
VH: B4 VH
VL: B1 VL with S18R, Q24R, E45K, G51T, E53R, E79Q, A80P, A83I, E107K
As for B7, the binding result in experiment [1] is reported as “binds”.
